Primary screen of a compound library

Sequences of proteins named here, by UniProt entry; tags and fusion partners are left off.
UniProt E9BF75, entry or part of it: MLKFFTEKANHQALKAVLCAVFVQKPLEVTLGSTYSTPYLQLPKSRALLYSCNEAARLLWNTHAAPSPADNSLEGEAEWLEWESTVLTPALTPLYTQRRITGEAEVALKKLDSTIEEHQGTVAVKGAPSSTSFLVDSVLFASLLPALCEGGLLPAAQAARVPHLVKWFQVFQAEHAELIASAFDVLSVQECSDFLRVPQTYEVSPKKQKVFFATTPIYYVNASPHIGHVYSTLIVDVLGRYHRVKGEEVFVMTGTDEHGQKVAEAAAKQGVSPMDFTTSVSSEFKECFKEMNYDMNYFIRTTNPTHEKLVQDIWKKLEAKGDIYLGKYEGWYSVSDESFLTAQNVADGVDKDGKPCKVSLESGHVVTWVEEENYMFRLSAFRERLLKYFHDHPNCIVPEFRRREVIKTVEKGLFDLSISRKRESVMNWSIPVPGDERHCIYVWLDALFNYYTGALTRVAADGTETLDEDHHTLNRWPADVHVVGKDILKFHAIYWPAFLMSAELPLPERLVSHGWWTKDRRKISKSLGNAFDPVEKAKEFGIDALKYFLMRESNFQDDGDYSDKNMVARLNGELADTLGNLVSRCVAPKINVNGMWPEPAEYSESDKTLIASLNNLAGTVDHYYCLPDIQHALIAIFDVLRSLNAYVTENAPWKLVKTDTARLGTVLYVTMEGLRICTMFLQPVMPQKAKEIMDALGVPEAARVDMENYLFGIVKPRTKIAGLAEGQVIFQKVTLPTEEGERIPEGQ

From ChEMBL document CHEMBL3988442, “University of Dundee, Small-Polar-MMV Screening Library” (2021).

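Primary screen of methionyl-tRNA synthetase; the read-out is not stated. Target: Methionyl-tRNA synthetase (putative), Leishmania donovani (UniProt E9BF75). The test concentration is not given. The values are filed as inhibition. About 68,000 compounds were tested under these conditions; 0.035% (about 24) showed 50% or more at least once.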

All values are in %.
How 0% and 100% were set is not recorded. Most values in the screen are low, and negative values occur.
Compounds were drawn at random from those tested, without regard to their results.

* CCCN(CC)c1cc(C2CCNCC2)nc(C)n1 | 10.9%
* COc1ncccc1C(=O)N1CCCC(n2ccnc2)C1 (stereo not shown) | 13.68%
* O=C(NCc1ccco1)[C@H]1C[C@H]2OCC[C@H]2N(S(=O)(=O)C2CC2)C1 | 15.48%
* O=C(O)C1(Cc2cccc(-c3cccs3)c2)CCCNC1 (stereo not shown) | 6.522%
* CN1CCC2(CCCN(S(=O)(=O)c3ccc(-c4cnco4)s3)C2)C1 (stereo not shown) | 14.83%
* Cc1noc(CNc2ccc(CC(=O)N3CCSCC3)cc2)n1 | 13.77%
* CN(C)c1nccc(C2CCN(c3ncccn3)CC2)n1 | 19.37%
* Cc1cn2c(n1)CCC(NC(=O)CCCn1cncn1)C2 (stereo not shown) | 8.101%
* O=C(Cc1ccsc1)N1C[C@@H]2COC[C@]2(COc2cccnc2)C1 | 17.05%
* CC(C)N1[C@H](Cn2cncn2)C[C@@H]2CN(c3ncccn3)CC[C@@H]21 | -6.767%
* COC(CNC(=O)c1ccoc1)c1cccc(Cl)c1 (stereo not shown) | 12.39%
* CC(C)C1CN(C(=O)c2nccnc2N)CCS1 (stereo not shown) | 13.39%
* COC(=O)CCC(=O)N1CCC2(CN(Cc3cccc(F)c3)C2)C1 | 4.603%
* Cc1ncc(-c2ccnc(SCCN(C)C)n2)c(-c2ccco2)n1 | 9.951%
* Cc1ccc(C)c2c(O)cc(CN[C@H]3CCCCNC3=O)nc12 | 12.03%
* CN(CCOc1ccccc1F)S(=O)(=O)CC1CCOCC1 | 15.32%
* CCn1cc(CNC2CCN(c3c(F)cccc3F)C2)cn1 (stereo not shown) | 11.76%
* CCN(Cc1cnn(C)c1)C[C@H]1CC[C@@H](Cc2cccc(CN)c2)O1 | 4.393%
* O=C([C@H]1CC[C@@H]2[C@@H](CCN2c2ncccn2)O1)N1CCCCO1 | 21.31%
* CC(C)c1nc(CCN(C)C(=O)C2COc3ccccc3C2)no1 (stereo not shown) | 11.37%
* O=C1CC2(CCN(S(=O)(=O)c3cccs3)C2)CN1c1ccccc1 (stereo not shown) | 9.091%
* Cc1noc(C(C)C)c1C(=O)N1CCOCC1CC(=O)c1ccco1 (stereo not shown) | -0.7042%
* CC(=O)N1CCC2(CC1)CN(C(=O)c1ccc3c(c1)OCCO3)C2 | 10.56%
* CN1C(=O)CCC12CCCN(C(=O)c1ccncc1F)C2 (stereo not shown) | 14.29%
* NC(=O)CN1CCCC1c1csc(Nc2cnccn2)n1 (stereo not shown) | 1.176%
* CCN1CC(C(=O)NCc2ccnc(-n3cccn3)c2)CC1=O (stereo not shown) | 10.72%
* COc1cc(-c2cccc3c2OC(CN)C3)ccc1O (stereo not shown) | 5.575%
* CSCC(=O)Nc1ncn(Cc2cccc(Br)c2)n1 | 6.41%
* CCc1nccn1C1CCCN(C(=O)CCOCC(F)(F)F)C1 (stereo not shown) | 7.895%
* CC1N(c2cnn(C)c2)C(=O)COC12CCN(c1ncccn1)CC2 (stereo not shown) | 1.099%
* NCCCC(=O)NCC1(O)CCN(c2ccnc3cccnc23)C1 (stereo not shown) | 10.25%
* CCOc1ccccc1CNC(=O)c1cnn(CC)c1C(F)(F)F | 4.665%
* O=C([C@@H]1CCCO1)N1CCn2c(Cn3cccn3)cnc2C1 | 10.48%
* CN(Cc1ccoc1)C(=O)C1(Oc2ccc(Cl)cc2)CCNCC1 | 10.65%
* COCC(C)NC(=O)c1cc(C)n(-c2cccc(OC)c2)c1C (stereo not shown) | 19.44%
* CC(=O)N1C[C@H]2CCCN(Cc3ccc(C)o3)[C@H]2C1 | 2.222%

The first 4 entries again:

With CCCN(CC)c1cc(C2CCNCC2)nc(C)n1 the screen gave 10.9%.
With COc1ncccc1C(=O)N1CCCC(n2ccnc2)C1 (stereo not shown) the screen gave 13.68%.
With O=C(NCc1ccco1)[C@H]1C[C@H]2OCC[C@H]2N(S(=O)(=O)C2CC2)C1 the screen gave 15.48%.
With O=C(O)C1(Cc2cccc(-c3cccs3)c2)CCCNC1 (stereo not shown) the screen gave 6.522%.